# Data as given in PubChem BioAssay AID1259308 (NCATS, 2017)
# Aim: 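Candidate targets for better recombinant protein yield in mammalian cells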 (primary screen)
# Cells: human HEK293 embryonic kidney cells stably expressing firefly luciferase (HEK-CMV-Luc2-Hygro)
# Reagents: single siRNA against human genes, 0.8 pmol siRNA per well
# Timing: 72 h
# Measurement: 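Luciferase light (ONE-Glo) measured on one replicate plate set and viability (CellTiter-Glo) on the other, scaled to a negative control siRNA, with robust z-scores and luciferase per cell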
# Scale: total luciferase, z-score and total luciferase, % of control: higher = more reporter protein produced
# Call rule: 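An siRNA counts as active if its total luciferase robust z-score exceeds 3; genes with two or more such siRNAs out of three were retested with fresh siRNAs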
# Meaning of the calls: active = raised luciferase; inactive = no rise
# Shown is a random part of about 59,000 deposited reagents. About 1,510 of all reagents (2.6%) were called active. 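Calls use total luciferase alone and ignore viability, so some active siRNAs may act by altering cell number.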 Unmarked entries are inactive. Not all columns of the deposit are shown.
target,PubChem SID,"total luciferase, z-score","total luciferase, % of control"
PHYKPL (5-phosphohydroxy-L-lysine phospho-lyase),SID160753113,-0.172,78.5
PHYKPL (5-phosphohydroxy-L-lysine phospho-lyase),SID160753115,0.698,95.8
PHYKPL (5-phosphohydroxy-L-lysine phospho-lyase),SID160753116,0.32,88.2
LDLRAD2 (low density lipoprotein receptor class A domain containing 2),SID160725344,3.43 (active),150
LDLRAD2 (low density lipoprotein receptor class A domain containing 2),SID160767390,1.41,110
LDLRAD2 (low density lipoprotein receptor class A domain containing 2),SID160767391,0.0852,83.6
H3C15 (H3 clustered histone 15),SID160725051,-1.98,42.6
H3C15 (H3 clustered histone 15),SID160725052,-0.945,63.1
H3C15 (H3 clustered histone 15),SID160727983,-2.02,41.8
CST9L (cystatin 9 like),SID160732450,0.864,99.1
CST9L (cystatin 9 like),SID160756801,0.349,88.8
CST9L (cystatin 9 like),SID160756802,-0.911,63.8
KEL (Kell metallo-endopeptidase (Kell blood group)),SID160776262,0.801,97.8
KEL (Kell metallo-endopeptidase (Kell blood group)),SID160776263,-0.992,62.2
KEL (Kell metallo-endopeptidase (Kell blood group)),SID160776264,-0.182,78.3
NCAM1 (neural cell adhesion molecule 1),SID160777803,-0.148,79
NCAM1 (neural cell adhesion molecule 1),SID160777804,-0.819,65.6
NCAM1 (neural cell adhesion molecule 1),SID160777805,1.1,104
PPP1R18 (protein phosphatase 1 regulatory subunit 18),SID160760472,-1.31,55.9
PPP1R18 (protein phosphatase 1 regulatory subunit 18),SID160760473,0.913,100
PPP1R18 (protein phosphatase 1 regulatory subunit 18),SID160760474,2.48,131
ZDHHC9 (zDHHC palmitoyltransferase 9),SID160740094,0.0603,83.1
ZDHHC9 (zDHHC palmitoyltransferase 9),SID160740095,-0.391,74.1
ZDHHC9 (zDHHC palmitoyltransferase 9),SID160740096,-0.442,73.1
DCHS1 (dachsous cadherin-related 1),SID160720488,0.947,101
DCHS1 (dachsous cadherin-related 1),SID160720489,-0.13,79.3
DCHS1 (dachsous cadherin-related 1),SID160720490,0.416,90.2
RET (ret proto-oncogene),SID160715808,2.65,135
RET (ret proto-oncogene),SID160715809,0.435,90.5
RET (ret proto-oncogene),SID160715810,-2.67,28.8
"CKMT2 (creatine kinase, mitochondrial 2)",SID160743818,0.468,91.2
"CKMT2 (creatine kinase, mitochondrial 2)",SID160743828,0.337,88.6
"CKMT2 (creatine kinase, mitochondrial 2)",SID160743839,-0.143,79
VTN (vitronectin),SID160718793,0.656,94.9
VTN (vitronectin),SID160718795,-0.845,65.1
VTN (vitronectin),SID160718796,-0.784,66.3
SLC7A11,SID160730869,-0.0488,80.9
SLC7A11,SID160736774,-0.634,69.3
SLC7A11,SID160736775,-0.0517,80.9
"PARS2 (prolyl-tRNA synthetase 2, mitochondrial)",SID160737360,0.109,84
"PARS2 (prolyl-tRNA synthetase 2, mitochondrial)",SID160737361,-0.25,76.9
"PARS2 (prolyl-tRNA synthetase 2, mitochondrial)",SID160737362,0.292,87.7
COL3A1 (collagen type III alpha 1 chain),SID160745766,0.613,94.1
COL3A1 (collagen type III alpha 1 chain),SID160745776,-1.17,58.6
COL3A1 (collagen type III alpha 1 chain),SID160745787,1.53,112
POU3F3 (POU class 3 homeobox 3),SID160723998,0.769,97.2
POU3F3 (POU class 3 homeobox 3),SID160723999,0.876,99.3
POU3F3 (POU class 3 homeobox 3),SID160724000,-1.59,50.2
TMEM62 (transmembrane protein 62),SID160749978,2.21,126
TMEM62 (transmembrane protein 62),SID160749979,-0.229,77.3
TMEM62 (transmembrane protein 62),SID160749981,0.287,87.6
ZC4H2 (zinc finger C4H2-type containing),SID160744619,0.117,84.2
ZC4H2 (zinc finger C4H2-type containing),SID160744620,1.8,118
ZC4H2 (zinc finger C4H2-type containing),SID160744621,-1.93,43.5
TEAD1 (TEA domain transcription factor 1),SID160717887,-0.366,74.6
TEAD1 (TEA domain transcription factor 1),SID160717888,0.0954,83.8
TEAD1 (TEA domain transcription factor 1),SID160717889,0.308,88
